Test results published in PubChem BioAssay AID652054 (National Center for Advancing Translational Sciences (NCATS), 2013).
In all, about 360,000 compounds went through this assay and about 9,100 (2.5%) were called active. This list was built around the results that the source calls inconclusive (neither active nor inactive); the mix of calls is not that of the screen. Cut-off read from the data, not from the text of the source: active = max response below about -50%; inconclusive = no clear call, values can overlap the other calls; inactive = above that.

Amino acid sequences for entries named in this document (tags omitted).
UniProt P35462, whole entry, looked up: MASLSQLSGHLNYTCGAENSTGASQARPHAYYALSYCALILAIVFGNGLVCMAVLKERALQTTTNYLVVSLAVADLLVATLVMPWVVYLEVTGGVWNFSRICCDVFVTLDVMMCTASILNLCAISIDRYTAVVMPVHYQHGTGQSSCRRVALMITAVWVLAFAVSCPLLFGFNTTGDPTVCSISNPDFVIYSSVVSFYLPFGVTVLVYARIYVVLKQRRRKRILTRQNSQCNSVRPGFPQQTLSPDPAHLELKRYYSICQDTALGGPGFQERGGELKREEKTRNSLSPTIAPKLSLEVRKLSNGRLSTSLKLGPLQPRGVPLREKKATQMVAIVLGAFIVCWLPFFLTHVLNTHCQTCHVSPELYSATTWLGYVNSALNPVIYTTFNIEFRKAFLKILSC

What follows are compounds tested against D(3) dopamine receptor (Homo sapiens) (UniProt P35462) (assay: qHTS of D3 Dopamine Receptor Antagonist: qHTS). Details: D3R cells, DiscoveRx beta-arrestin luminescence, antagonist mode; active compounds read low.
Summary of the method: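 Cells plated overnight at 1500 cells/well, then exposed to library compounds with dopamine controls for 90 minutes at 37 degrees C. DiscoveRx reagent added for 30–60 minutes at room temperature; luminescence read, quantitative HTS format.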
% is set by controls: 0 for no effect and ±100 for the full control effect.

Row | SMILES | max response, negative = inhibition
1 | CCc1ccc(Cn2nnc(C(=O)NCc3ccccc3OC)c2N)cc1 | inconclusive: -32.4%
2 | CCOC(=O)Cn1nnnc1CN(Cc1cccs1)Cc1cc2cc(C)cc(C)c2[nH]c1=O | inconclusive: -41.8%
3 | N[C@@H](CO)c1nnc([C@H](CC(=O)O)NC(=O)C2CCNCC2)o1 | inconclusive: -34.3%
4 | CC(=NNC(N)=S)c1ccc2cc3c(cc2c1)OCO3 | inconclusive: -33.5%
5 | Cc1ccccc1-c1ccc2c(c1)O[C@@H](CN(C)C(=O)Nc1ccc(C(F)(F)F)cc1)[C@H](C)CN([C@@H](C)CO)S2(=O)=O | inconclusive: -48.4%
6 | CCCCC(=O)Nc1ccc(C(=O)NCCc2ccccc2)cc1 | active: -62.3%
7 | COc1cc(NC(=S)NC(=O)c2ccccc2F)ccc1NC(=O)c1ccco1 | inactive: -15.2%
8 | O=C1CN=C(Nc2ccc(Cl)cc2)N1c1ccccc1 | inconclusive: -49%
9 | CC1=C(C(=O)N2CCCCCC2)CC(CC(=O)NC2CCCC2)C(=O)N1Cc1ccc(F)cc1 (stereo not drawn) | inactive: 0%
10 | Cc1ccc(S(=O)(=O)N2C[C@@H](C)[C@]3(C2)[C@H](O)[C@H](OC(=O)NCc2ccco2)C[C@H]2C(=O)N(c4ccccc4)C(=O)[C@H]23)cc1 | inactive: 11.6%
11 | O=S(=O)(N/N=C\C=C\c1ccccc1)c1ccc(Br)cc1 | inconclusive: -46.9%
12 | CCS(=O)(=O)Nc1cc2c3c(c1)CCC(=O)N3CCC2 | inactive: -12.1%
13 | COc1ccc(/C=N/NC(=O)c2c(C)nc3ccccn23)cc1[N+](=O)[O-] | inconclusive: -32.1%
14 | COc1ccc(NC(=O)c2sc(=O)n(Cc3ccccc3C#N)c2C)cc1OC | inactive: 10.1%
15 | CCOc1ccc(-n2nc3cc(C)c(N)cc3n2)cc1 | inactive: -4.91%
16 | O=c1[nH]cnc2scc(-c3ccc(Br)cc3)c12 | inconclusive: -40.1%
17 | COc1cccc2cc3c(=O)oc4ccccc4c3nc12 | inconclusive: -49.8%
18 | CN(C)CCCNC(=O)C(=O)Nc1ccc2c(c1)N(S(=O)(=O)c1cccs1)CCC2 | inactive: 3.45%
19 | COCCCNCCCCSc1ccc(Cl)cc1 | inconclusive: -49.8%
20 | COC(=O)[C@@]12CCCN1[C@H](c1ccc(-c3ccc(Cl)c(Cl)c3)c(OC)c1)[C@H]1C(=O)N(C)C(=O)[C@H]12 | inconclusive: -30%
21 | CC1(C(=O)NCc2ccccc2)Cc2c(-c3ccc(C(N)=O)cc3)ccnc2O1 (stereo not drawn) | inconclusive: -47.8%
22 | COc1cccc(/C=N/NC(=O)NC23CC4CC(CC(C4)C2)C3)c1O | active: -61.8%
23 | CC1(C)N=C(N)N=C(N)N1c1ccc(Oc2ccc(Cl)cc2)c(Cl)c1 | inconclusive: -34%

An excerpt of these results, in CSV form:
Row,SMILES,"max response, negative = inhibition"
5,Cc1ccccc1-c1ccc2c(c1)O[C@@H](CN(C)C(=O)Nc1ccc(C(F)(F)F)cc1)[C@H](C)CN([C@@H](C)CO)S2(=O)=O,inconclusive: -48.4%
12,CCS(=O)(=O)Nc1cc2c3c(c1)CCC(=O)N3CCC2,inactive: -12.1%
